Among the data in PubChem BioAssay AID2685 (National Center for Advancing Translational Sciences (NCATS), 2010) are cell number change and AC50 values, retold here.

The nature of this experiment: qHTS Assay for Lipid Storage Modulators in Drosophila S3 Cells.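 On cell number change: cells counted by Cell Tracker Red CMTPX staining in the red channel.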 Conditions: BODIPY lipid droplet fluorescence, 18-24 h; for cell number change: measured here: cell count max response, cells fed with added oleic acid. In outline: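 Drosophila S3 cells loaded with oleic acid (400 uM, as added) and compounds at several concentrations; lipid droplets imaged by 488-nm laser-scanning cytometry, 500–530 nm intensity and object ratio to cell channel. Percent activity normalized to 20 uM Triacsin C.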

The mark [1] stands for this setting: measured here: lipid fluorescence (Fed channel) AC50, cells fed with added oleic acid.
The mark [2] stands for this setting: measured here: cell number channel AC50, cells fed with added oleic acid.

“And” between values parts separate entries of the source, which are not always exact repeats. Equal entries are not always repeated. Some of the results follow. These are further read-outs of the screen, such as a control signal, another cell line or another target. No call is given for them. The list favours compounds with an active or inconclusive main result. The note in brackets gives the kind of curve behind each potency; many fits are weak.

For `CCCN(CC1CC1)S(=O)(=O)c1ccc(S(N)(=O)=O)cc1`, the cell number change was -38.3%. Further, under setting [1], the AC50 is 18.4 µM [falling, partial curve].
Take `CC(=O)Nc1ccc(S(=O)(=O)NCCC(=O)Nc2ccc(C)cn2)cc1`: the cell number change came to 18.5%. The AC50 under setting [2] was 4.11 µM [rising, partial curve].
Take `O=C(CN1C(=O)c2ccccc2C1=O)Oc1ccc(F)cc1`: the cell number change came to 12.3%.
Take `Cc1nn(Cc2ccc(Cl)c(Cl)c2)c(C)c1NC(=O)c1cc(-c2ccco2)on1`: the cell number change was -29%. Under setting [1], the AC50 was 16.4 µM [falling, partial curve].
On to `O=C(N/N=C/c1c[nH]c2ccccc12)c1[nH]c2ccc(Br)cc2c1-c1ccccc1`, for which the cell number change is -41%. Further, the AC50 under setting [2] was 16.4 µM [falling, single point]. Also, the AC50 under setting [1] was 16.4 µM [falling, single point].
Regarding `Cc1ccc(S(=O)(=O)N2CCCCC2)cc1C(=O)Nc1ncn[nH]1`, the cell number change stood at 0.557%.
In the case of `CN(CC(=O)N1CCN(Cc2ccccc2)CC1)S(=O)(=O)c1ccc(F)cc1`, the cell number change amounted to 12.3%. In addition, the AC50 under setting [1] is 1.3 µM [rising, full curve, poor fit].
In the case of `Fc1ccc(CSc2ncnc3c2oc2ccccc23)cc1`, the cell number change came out at 3.94%. Under setting [1], the AC50 is 5.8 µM [rising, single point].
Turning to `CC1CCN(CCCNC(=O)c2ccc3c(=O)n(CCc4ccccc4)c(=O)[nH]c3c2)CC1`, the cell number change was -25.4%. Also, the AC50 under setting [1] is 3.66 µM [falling, partial curve].
Turning to `COc1ccc(CSc2nnc3n(C)c(=O)c4c5c(sc4n23)CCCC5)cc1`, the cell number change is 2.58%.
For the compound `CC(C)C(=O)NC(=S)Nc1ccc(S(=O)(=O)NC(C)(C)C)cc1`, the cell number change is -21.2%.
On to `C=CCNC(=O)CCCc1ccccc1`, for which the cell number change is -7.12%. Besides, the AC50 under setting [2] was 1.46 µM [falling, full curve, poor fit].
As for `N#C/C(=C\c1ccc(OCC(N)=O)cc1)c1ccccc1`, the cell number change turned out to be 2.42%. For the same compound, the AC50 under setting [2] is 0.00411 µM [rising, full curve, poor fit].
For the compound `CCN(c1ccccc1)S(=O)(=O)c1ccc(C(=O)N(CCCN(C)C)c2nc3c(C)cccc3s2)cc1`, the cell number change was 11.3%. Under setting [1], the AC50 was 16.4 µM [falling, single point].
For the compound `CC(C)CC(NC(=O)C1CCCCC1)C(=O)N1CCN(c2ccccn2)CC1` (stereo unspecified), the cell number change turned out to be 7.14%. Further, the AC50 under setting [1] is 18.4 µM [rising, partial curve].
`CC(OC(=O)c1cc[n+]([O-])cc1)C(=O)Nc1ccc(C(N)=O)cc1` (stereo unspecified): the cell number change is -1.87%. Besides, the AC50 under setting [1] is 3.26 µM [rising, partial curve].
As for `O=C(Nc1cccc(O)c1)c1ccc(NC(=O)c2cccs2)cc1`, the cell number change is -39%. The AC50 under setting [2] is 14.6 µM [falling, single point].
Consider `O=C(CNC(=O)c1cccc(OC(F)F)c1)OCn1nnc2ccccc2c1=O`, for which the cell number change turned out to be 10.1%. Further, the concentration at half-maximal activity (AC50) under setting [2] was 2.31 µM [rising, partial curve, poor fit]. The AC50 under setting [1] was 2.91 µM [rising, partial curve, poor fit].
As for `Cn1c(Cc2cccs2)nnc1SCC(=O)Nc1ccccc1F`, the cell number change was determined as 12.9%.
With `CC(=O)Nc1ccc(S(=O)(=O)Nc2ccccc2C(=O)N2CCOCC2)cc1`, the cell number change is 2.63%.
For the compound `COc1ccc(CC(=O)Nc2ccc3nc(SC)sc3c2)cc1OC`, the cell number change worked out at 37.3%. Besides, the AC50 under setting [1] is 29.1 µM [rising, single point].
As for `NC(=O)Nn1c(CCC(=O)O)ccc1-c1ccc(F)cc1`, the cell number change turned out to be 36.5%. Also, the half-maximal activity concentration (AC50) under setting [1] was 11.6 µM [rising, partial curve].
Consider `Cc1ccc(S(=O)(=O)N2c3ccccc3OCC2c2ccccc2)cc1` (stereo unspecified), for which the cell number change is -30.9%. Under setting [2], the AC50 is 18.4 µM [falling, single point]. Also, the AC50 under setting [1] is 20.6 µM [falling, single point].
`COc1ccc(CN2CC[C@@H](N3CCOCC3)[C@H](O)C2)cc1F`: the cell number change was found to be 33.8%.
Turning to `Cc1ccc2nc(SCC(=O)Nc3ccc4c(c3)CCC4)[nH]c2c1`, the cell number change was -65.7%. Moreover, the AC50 under setting [2] is 18.4 µM [falling, single point]. Besides, the AC50 under setting [1] is 20.6 µM [falling, single point].
With `COC(=O)c1cccc(NC(=S)NCc2ccc(Cl)cc2)c1`, the cell number change was found to be 93.2%.
Turning to `CC(C)CN(Cc1cc2ccccc2[nH]c1=O)C(=O)c1cccnc1`, the cell number change was 22.5%. Besides, the AC50 under setting [2] is 2.59 µM [rising, single point]. Besides, the AC50 under setting [1] was 2.59 µM [rising, full curve].
As for `NS(=O)(=O)c1ccc(CNC(=O)Cc2ccccc2[N+](=O)[O-])cc1`, under setting [1], the AC50 is 0.58 µM [rising, single point].
Consider `O=C(NC(=S)Nc1c(F)cc(F)cc1Br)c1ccc2c(c1)OCCO2`, for which the AC50 was 3.98 µM [rising, partial curve] under setting [2] and 5.01 µM [rising, single point] under setting [1].
For `O=C(c1ccc(-n2cnnn2)cc1)N(C1CCCCC1)C1CCCCC1`, the cell number change is -38.3%. Also, the AC50 under setting [2] is 1.46 µM [falling, full curve, poor fit]. Further, the AC50 under setting [1] was 1.16 µM [falling, full curve].
On to `CC1(C)Cc2c(sc(NC(=O)C(=O)N3CCCC3)c2C(N)=O)CO1`, for which the cell number change was -22.7%. The AC50 under setting [1] is 2.31 µM [falling, partial curve].
Turning to `COc1ccccc1N1CCN(C(=O)CSc2nnc(NC(=O)C(C)C)s2)CC1`, the cell number change is -14.9%. The AC50 under setting [1] is 4.61 µM [falling, full curve].
As for `Cc1ccc(C)c(OCCn2nnc3ccccc32)c1`, the cell number change is -9.12%. For the same compound, the AC50 under setting [1] was 6.51 µM [falling, single point].
Turning to `CC(C)C(c1nnnn1Cc1ccc(F)cc1)N1CCN(C(=O)c2ccco2)CC1` (stereo unspecified), the cell number change was -2.81%. For the same compound, under setting [1], the concentration at half-maximal activity (AC50) was 0.651 µM [falling, single point].
Regarding `CC(C)(C)C(=O)Nc1ccc(C(=O)N/N=C/c2ccccc2OC(=O)c2ccccc2)cc1`, the cell number change is 11.8%. Besides, the AC50 under setting [1] was 16.4 µM [falling, single point].
Take `Cc1ccc(S(=O)(=O)N2CCC(C(=O)N3CCC(C(=O)NCC4CCCO4)CC3)CC2)cc1` (stereo unspecified): the cell number change was -10.4%. Moreover, under setting [1], the AC50 is 3.26 µM [falling, partial curve].
As for `CCCCN(C(=O)COC(=O)c1ccc(C=O)cc1)c1c(N)n(CCC)c(=O)[nH]c1=O`, the cell number change was found to be 23.2%. Moreover, the AC50 under setting [1] is 13 µM [rising, partial curve, poor fit].
For the compound `CC(=O)c1nn(-c2cccc(Br)c2)cc1C(=O)c1ccc2ccccc2c1`, the AC50 under setting [1] was 9.2 µM [falling, single point].
On to `CC1=CC(=O)c2ccccc2C1=O`, for which the cell number change was -33.4% and -44%. Also, the AC50 under setting [2] was 16.4 µM [falling, single point] and 14.6 µM [falling, partial curve]. The half-maximal activity concentration (AC50) under setting [1] was 14.6 µM [falling, partial curve] and 16.4 µM [falling, partial curve].
Take `O=C(CN1C(=O)NC2(CCCC2)C1=O)Nc1ccccc1`: the cell number change was -15.9%. Also, under setting [1], the half-maximal activity concentration (AC50) was 23.1 µM [falling, single point].
Take `CCOC(=O)c1c(C)[nH]c(C(=O)OCC(=O)Nc2ccccc2)c1C`: the cell number change was -18.2%. In addition, the AC50 under setting [1] is 18.4 µM [falling, single point].
Regarding `Cc1ccc(C(=O)Nc2nc3c(s2)CCCC3)o1`, the cell number change was 52.1%. For the same compound, the AC50 under setting [2] is 20.6 µM [rising, single point].
As for `COc1ccc(-c2[nH]ncc2/C=N\NC(=O)c2cccs2)cc1OC`, the cell number change is -48.7%. Further, the AC50 under setting [2] was 29.1 µM [falling, single point].
As for `c1coc(CNc2ncnc3[nH]ncc23)c1`, the cell number change was found to be 9.84%. Besides, the AC50 under setting [2] was 0.0651 µM [rising, full curve, poor fit].
On to `CCCCCOC(=O)c1[nH]c2c(c1C)C(=O)CC(c1ccco1)C2` (stereo unspecified), for which the cell number change was 17.4%. Besides, the AC50 under setting [1] is 0.58 µM [rising, full curve].
As to `COc1cccc(CNc2ccc(N3CCC(C)CC3)cc2)c1OC`, the cell number change is -39.4%. For the same compound, the AC50 under setting [2] was 25.9 µM [falling, partial curve, poor fit]. Also, the AC50 under setting [1] was 25.9 µM [falling, partial curve].
Take `Cn1c(=O)n(CC(=O)NC2CCCCC2)c(=O)c2ccccc21`: the AC50 under setting [2] was 0.517 µM [rising, single point].
As to `O=c1[nH][nH]c2nc(C(F)(F)F)cc(C(F)(F)F)c12`, the cell number change was 13.7%. Besides, under setting [1], the AC50 is 32.6 µM [rising, partial curve].
Regarding `CCN(CC(=O)Nc1ccc(NC(C)=O)cc1)C(=O)c1ccc2c(c1)OCCO2`, the cell number change was -3.58%. Under setting [1], the AC50 was 1.64 µM [rising, partial curve, poor fit].
For `CCn1c(C)nc2cc(-c3nc4n(n3)Cc3ccccc3-4)ccc21`, the cell number change is -78.9%. Moreover, the AC50 under setting [2] is 11.6 µM [falling, partial curve, poor fit]. Also, the AC50 under setting [1] is 11.6 µM [falling, partial curve, poor fit].
Regarding `CCCOc1ccc(Cc2c(Cl)nc(SC)nc2NC)cc1`, the cell number change was -50.7%. In addition, the AC50 under setting [2] is 9.2 µM [falling, partial curve]. Further, the AC50 under setting [1] is 3.26 µM [falling, partial curve, poor fit].
`CCC(=O)N1c2ccc(S(=O)(=O)N3CCN(c4cc(C)ccc4C)CC3)cc2CC1C` (stereo unspecified): the cell number change is -13%. Further, under setting [1], the half-maximal activity concentration (AC50) is 6.51 µM [falling, single point].
For the compound `Cn1c(SCCCC(=O)c2ccccc2)nnc1-c1ccncc1`, the cell number change is 1.37%.
On to `O=C(CCN1C(=O)c2ccccc2C1=O)NCc1ccco1`, for which the cell number change was -24.3%. For the same compound, under setting [1], the AC50 was 8.2 µM [falling, partial curve].
Regarding `COC(=O)c1ccc(NC(=O)CCN2CCN(c3ccccc3)CC2)cc1`, the cell number change came out at 9.21%. Besides, under setting [1], the AC50 was 0.0461 µM [rising, full curve, poor fit].
As to `FC(F)(F)c1cnc(N2CCC(=NOCc3ccc(Cl)cc3)CC2)c(Cl)c1`, the cell number change is 21.5%. Further, under setting [1], the AC50 was 4.61 µM [falling, single point].
As to `CSc1ccc(-c2nc3cnccn3c2Nc2ccc3c(c2)OCO3)cc1`, the cell number change turned out to be 35.5%. Under setting [2], the AC50 is 1.46 µM [rising, partial curve]. Further, the AC50 under setting [1] is 16.4 µM [rising, partial curve].
On to `Cc1nc2cc(NC(=O)N3c4ccccc4CC3C)ccc2o1` (stereo unspecified), for which, under setting [1], the AC50 is 1.46 µM [rising, partial curve, poor fit].
On to `Cc1cc(=O)[nH]c(N/N=C/c2c(C)nn(-c3ccccc3)c2Cl)n1`, for which the cell number change was -11.8%. In addition, the AC50 under setting [1] was 3.26 µM [falling, partial curve, poor fit].
